# Data as given in patent US20240201172A1, “USE OF ODORANT RECEPTOR FOR SUPPRESSING LACTATE-INDUCED M2-TYPE DIFFERENTIATION OF TUMOR-ASSOCIATED MACROPHAGES AND TUMOR GROWTH” (KYUNGPOOK NATIONAL UNIVERSITY INDUSTRY-ACADEMIC COOPERATION …, priority 2021, published 2024).
# For at least one compound, name, drawing or mass did not settle the structure.
# System: BMDMs
# Assay: M1/M2 polarization of mouse BMDMs (flow cytometry, qRT-PCR, cell shape)
# Format: cell-based
# Details: WT BMDMs, FIGS. 4H-J
# Description: BMDMs were isolated from tibias and femurs of C57BL6 or Balb/c mice and cultured in DMEM supplemented with 10 ng/mL macrophage colony-stimulating factor (Gibco, Carlsbad, CA) and 10% FBS for 7 d. The culture medium was changed every other day. For M1 polarization, BMDMs were cultured with 20 ng/mL recombinant mouse IFN-γ (R&D Systems) plus 100 ng/mL LPS for 24 to 48 h. For M2 polarization, BMDMs were cultured with 20 ng/mL recombinant mouse IL-4 for 24 to 48 h. For lactate-mediated M2 polarization, BMDMs were treated with 10 mM lactate (Sigma-Aldrich, St. Louis, MO) at 37° C. in a humidified atmosphere containing 5% CO2 for 24 to 48 h.
# Anti-CD11b, anti-CD3, anti-CD4, anti-CD8, anti-CD86, anti-F4/80, anti-CD206, anti-CD163, and anti-Gr1 antibodies were purchased from BioLegend (San Diego, CA). An anti-Olfr78 antibody was purchased from LSBio (Seattle, WA). Anti-CD206 and anti-CD86 antibody was purchased from Santa Cruz Biotechnology (Dallas, TX). […] At least 10,000 or more events were analyzed using a flow cytometer (BD Bioscience, San Jose, CA). Data were evaluated using CellQuest Pro software (BD Biosciences). […]
# Cells were lysed using QIAzol lysis reagent (Qiagen, Hilden, Germany). […] Data used to determine relative expression were analyzed according to the Livak method. […]
smiles,measurement,value
CCCC(=O)O [butyrate],"mRNA levels of M2 markers such as IL-4, IL-10, and TGF-β",did not
